Results published in CN106046162A.
These are yes or no findings as the source states them, for the method shown. Some results given as binding are weak or reduced against the parent protein; the word gives no strength.

Amino acid sequences for entries named in this document (tags omitted). Residues count along the entry.
UniProt Q15116, residues 21-167: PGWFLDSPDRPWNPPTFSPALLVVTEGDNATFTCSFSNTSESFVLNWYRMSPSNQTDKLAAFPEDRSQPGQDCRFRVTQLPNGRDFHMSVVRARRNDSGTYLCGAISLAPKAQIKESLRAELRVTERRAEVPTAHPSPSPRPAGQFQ

Target: 人PD-1-Fc重组蛋白(RD) (human) (UniProt Q15116)
Assay: ELISA

binding: binds
B1: 抗人PD-1单克隆抗体2-189-H-1 (antibody, V domains shown)
VH: QVQLKESGPGLVAPSQSLSITCTVSGFSLTTYGVSWVRQPPGKGLEWLGVIWGDGSTDYHSVLISRLSITKDISKSQVFLKLNSLQSDDTATYYCAQQGSRGDYWGQGTTLTVSS
VL: DVLLTQTPLSLPVSLGDQASISCRSSQTIVHSNGITYLEWYLQKPGQSPKALISKVSNRLSGVPDRFSGSGSGTDFTLKISRVEAEDLGVYYCFQGSHIPYTFGGGTKLEIK
